{"source": "paper PMC7327037", "molecules": {"B1": {"name": "FOXM1D as used in the co-IP and reverse/reciprocal co-IP assays (protein, UniProt Q08050-4 1-786)", "chain": "MKTSPRRPLILKRRRLPLPVQNAPSETSEEEPKRSPAQQESNQAEASKEVAESNSCKFPAGIKIINHPTMPNTQVVAIPNNANIHSIITALTAKGKESGSSGPNKFILISCGGAPTQPPGLRPQTQTSYDAKRTEVTLETLGPKPAARDVNLPRPPGALCEQKRETCADGEAAGCTINNSLSNIQWLRKMSSDGLGSRSIKQEMEEKENCHLEQRQVKVEEPSRPSASWQNSVSERPPYSYMAMIQFAINSTERKRMTLKDIYTWIEDHFPYFKHIAKPGWKNSIRHNLSLHDMFVRETSANGKVSFWTIHPSANRYLTLDQVFKQQKRPNPELRRNMTIKTELPLGARRKMKPLLPRVSSYLVPIQFPVNQSLVLQPSVKVPLPLAASLMSSELARHSKRVRIAPKVFGEQVVFGYMSKFFSGDLRDFGTPITSLFNFIFLCLSVLLAEEGIAPLSSAGPGKEEKLLFGEGFSPLLPVQTIKEEEIQPGEEMPHLARPIKVESPPLEEWPSPAPSFKEESSHSWEDSSQSPTPRPKKSYSGLRSPTRCVSEMLVIQHRERRERSRSRRKQHLLPPCVDEPELLFSEGPSTSRWAAELPFPADSSDPASQLSYSQEVGGPFKTPIKETLPISSTPSKSVLPRTPESWRLTPPAKVGGLDFSPVQTSQGASDPLPDPLGLMDLSTTPLQSAPPLESPQRLLSSEPLDLISVPFGNSSPSDIDVPKPGSPEPQVSGLAANRSLTEGLVLDTMNDSLSKILLDISFPGLDEDPLGPDNINWSQFIPELQ"}}, "key": {"[1]": {"target": "T1, FOXM1D as used in the co-IP and reverse/reciprocal co-IP assays (UniProt Q08050)", "T1 sequence": "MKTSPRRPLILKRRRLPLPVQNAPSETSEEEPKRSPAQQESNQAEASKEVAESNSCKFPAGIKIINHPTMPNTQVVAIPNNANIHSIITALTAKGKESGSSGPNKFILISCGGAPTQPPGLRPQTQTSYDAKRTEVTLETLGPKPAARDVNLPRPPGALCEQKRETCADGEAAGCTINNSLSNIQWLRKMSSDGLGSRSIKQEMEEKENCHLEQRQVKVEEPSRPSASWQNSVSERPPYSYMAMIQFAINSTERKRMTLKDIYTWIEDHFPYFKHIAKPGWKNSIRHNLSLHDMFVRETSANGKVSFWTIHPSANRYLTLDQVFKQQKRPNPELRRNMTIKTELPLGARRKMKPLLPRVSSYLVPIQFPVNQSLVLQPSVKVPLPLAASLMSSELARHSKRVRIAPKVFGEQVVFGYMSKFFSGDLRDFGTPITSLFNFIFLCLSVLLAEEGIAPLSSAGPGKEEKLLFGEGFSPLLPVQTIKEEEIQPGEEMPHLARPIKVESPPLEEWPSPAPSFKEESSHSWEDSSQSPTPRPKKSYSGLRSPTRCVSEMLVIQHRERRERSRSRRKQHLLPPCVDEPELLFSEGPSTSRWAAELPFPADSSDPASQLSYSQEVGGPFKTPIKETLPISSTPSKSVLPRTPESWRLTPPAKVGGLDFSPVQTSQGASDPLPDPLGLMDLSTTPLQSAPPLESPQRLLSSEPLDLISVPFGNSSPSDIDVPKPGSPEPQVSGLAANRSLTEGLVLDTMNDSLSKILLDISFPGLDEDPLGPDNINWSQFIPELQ", "test": "co-IP; co-IP and reverse (reciprocal) co-IP (Fig. 1b, f, g; Supplementary Fig. 3a); cells, tags and antibodies not told in the text shown"}, "[2]": {"target": "T2, FOXM1D as used in the GST pull down assays (UniProt Q08050)", "T2 sequence": "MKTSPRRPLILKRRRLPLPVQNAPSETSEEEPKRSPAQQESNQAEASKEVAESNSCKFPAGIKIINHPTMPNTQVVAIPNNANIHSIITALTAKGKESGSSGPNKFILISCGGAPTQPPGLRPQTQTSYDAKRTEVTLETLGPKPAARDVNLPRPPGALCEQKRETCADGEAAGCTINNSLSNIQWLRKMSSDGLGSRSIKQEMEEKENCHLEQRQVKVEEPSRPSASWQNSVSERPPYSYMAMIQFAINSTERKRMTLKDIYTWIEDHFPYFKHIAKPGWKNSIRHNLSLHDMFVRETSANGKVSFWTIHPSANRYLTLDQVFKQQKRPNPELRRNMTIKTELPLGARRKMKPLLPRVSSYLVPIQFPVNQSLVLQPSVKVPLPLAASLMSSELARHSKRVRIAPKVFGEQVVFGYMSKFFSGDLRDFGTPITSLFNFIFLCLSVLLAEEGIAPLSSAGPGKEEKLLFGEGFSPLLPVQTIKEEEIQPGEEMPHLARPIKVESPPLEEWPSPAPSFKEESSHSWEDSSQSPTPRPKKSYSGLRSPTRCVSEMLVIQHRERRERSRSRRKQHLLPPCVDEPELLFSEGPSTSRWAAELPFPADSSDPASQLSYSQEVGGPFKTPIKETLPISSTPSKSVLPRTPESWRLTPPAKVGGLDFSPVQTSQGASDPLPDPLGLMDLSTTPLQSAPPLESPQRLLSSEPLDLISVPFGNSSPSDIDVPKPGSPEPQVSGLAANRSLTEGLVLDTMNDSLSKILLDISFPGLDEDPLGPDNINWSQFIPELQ", "test": "pull-down; GST pull down (Supplementary Fig. 3b, 4c); which partner carried GST not told in the text shown"}, "[3]": {"target": "p85α (PI3K regulatory subunit) as used in the reciprocal co-IP assays", "test": "co-IP; co-IP and reverse (reciprocal) co-IP (Fig. 1b, f, g; Supplementary Fig. 3a); cells, tags and antibodies not told in the text shown"}}, "note": "Results are given in words; binding and its absence hold for the method and conditions named. Binding seen in cells or lysates may run through a third protein. A result given as binding can be weak or reduced; the word gives no strength. For part of these data: Sequences can lack the tags named with a protein.", "data": [{"molecule": "p85α (PI3K regulatory subunit) as used in the reciprocal co-IP assays", "values": [{"measurement": "binding", "setting": "[1]", "result": "binds"}]}, {"molecule": "p85α as used in the GST pull down assay", "values": [{"measurement": "binding", "setting": "[2]", "result": "binds"}]}, {"molecule": "B1", "values": [{"measurement": "binding", "setting": "[3]", "result": "binds"}]}]}
